Some of the results follow. Most entries show no effect beyond the scatter of the controls.
compound: Cc1nc(Nc2ncc(C(=O)Nc3c(C)cccc3Cl)s2)cc(N2CCN(CCO)CC2)n1 [dasatinib]; experiment: log2 fold change of tryptic peptide abundance, ligand vs vehicle (limited proteolysis) (log2 ratio); higher = more trypsin-susceptible (destabilized); conditions: ligand concentration: 5 uM; sample: K562 cleared lysate

By UniProt entry, the sequences of proteins in these tests, tags left out. Where a name states a change or a piece, a line headed by the entry shows the natural chain unless it says otherwise.
UniProt P12757: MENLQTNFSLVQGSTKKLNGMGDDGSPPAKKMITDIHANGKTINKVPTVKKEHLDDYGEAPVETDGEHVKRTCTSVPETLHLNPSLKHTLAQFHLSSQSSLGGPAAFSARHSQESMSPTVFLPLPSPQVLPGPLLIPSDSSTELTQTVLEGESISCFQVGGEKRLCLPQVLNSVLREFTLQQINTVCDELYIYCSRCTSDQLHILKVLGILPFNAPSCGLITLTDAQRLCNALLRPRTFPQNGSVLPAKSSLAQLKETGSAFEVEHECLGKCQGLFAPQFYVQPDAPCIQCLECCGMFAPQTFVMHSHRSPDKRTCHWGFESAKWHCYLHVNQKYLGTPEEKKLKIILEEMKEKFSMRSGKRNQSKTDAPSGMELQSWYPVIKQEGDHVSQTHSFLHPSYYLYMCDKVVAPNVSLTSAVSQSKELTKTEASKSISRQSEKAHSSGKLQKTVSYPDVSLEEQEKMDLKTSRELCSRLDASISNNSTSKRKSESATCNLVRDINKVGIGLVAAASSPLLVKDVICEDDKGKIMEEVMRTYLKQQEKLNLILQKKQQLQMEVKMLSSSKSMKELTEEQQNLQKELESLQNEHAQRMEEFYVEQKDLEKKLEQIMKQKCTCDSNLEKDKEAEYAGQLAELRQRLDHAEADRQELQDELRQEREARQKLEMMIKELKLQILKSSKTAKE
UniProt P07948: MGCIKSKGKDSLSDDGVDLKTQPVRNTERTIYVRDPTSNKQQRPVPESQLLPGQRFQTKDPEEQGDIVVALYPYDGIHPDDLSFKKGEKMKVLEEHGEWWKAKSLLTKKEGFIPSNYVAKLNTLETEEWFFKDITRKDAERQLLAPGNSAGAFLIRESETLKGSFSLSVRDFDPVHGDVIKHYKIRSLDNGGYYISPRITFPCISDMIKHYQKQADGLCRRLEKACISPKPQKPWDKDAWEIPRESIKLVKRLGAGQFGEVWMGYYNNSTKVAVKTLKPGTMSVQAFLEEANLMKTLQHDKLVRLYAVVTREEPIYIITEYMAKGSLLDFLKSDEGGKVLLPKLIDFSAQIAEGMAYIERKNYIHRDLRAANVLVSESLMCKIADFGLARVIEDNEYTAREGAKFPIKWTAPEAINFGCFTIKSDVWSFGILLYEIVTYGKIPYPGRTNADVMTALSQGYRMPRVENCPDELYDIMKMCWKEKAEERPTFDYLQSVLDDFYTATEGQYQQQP
UniProt P04406: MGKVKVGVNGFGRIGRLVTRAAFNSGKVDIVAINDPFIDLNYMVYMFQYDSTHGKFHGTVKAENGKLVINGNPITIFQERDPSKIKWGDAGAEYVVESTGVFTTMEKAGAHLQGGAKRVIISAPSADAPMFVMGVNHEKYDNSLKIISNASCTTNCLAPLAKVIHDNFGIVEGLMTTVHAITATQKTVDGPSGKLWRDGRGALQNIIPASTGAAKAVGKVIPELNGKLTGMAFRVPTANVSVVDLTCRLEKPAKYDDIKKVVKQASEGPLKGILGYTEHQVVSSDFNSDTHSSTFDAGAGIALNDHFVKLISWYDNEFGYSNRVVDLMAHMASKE
UniProt P07205: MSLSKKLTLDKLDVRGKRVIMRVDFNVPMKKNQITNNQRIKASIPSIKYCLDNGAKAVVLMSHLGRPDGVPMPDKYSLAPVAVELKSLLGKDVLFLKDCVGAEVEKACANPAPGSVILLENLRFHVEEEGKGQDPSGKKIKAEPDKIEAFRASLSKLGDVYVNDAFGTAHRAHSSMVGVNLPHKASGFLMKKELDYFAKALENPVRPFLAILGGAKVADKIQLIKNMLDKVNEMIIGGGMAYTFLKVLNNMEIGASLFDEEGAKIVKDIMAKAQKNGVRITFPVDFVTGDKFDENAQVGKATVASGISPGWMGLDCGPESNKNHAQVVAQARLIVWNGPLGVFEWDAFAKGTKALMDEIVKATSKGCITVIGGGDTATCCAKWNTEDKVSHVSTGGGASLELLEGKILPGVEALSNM
UniProt P08174: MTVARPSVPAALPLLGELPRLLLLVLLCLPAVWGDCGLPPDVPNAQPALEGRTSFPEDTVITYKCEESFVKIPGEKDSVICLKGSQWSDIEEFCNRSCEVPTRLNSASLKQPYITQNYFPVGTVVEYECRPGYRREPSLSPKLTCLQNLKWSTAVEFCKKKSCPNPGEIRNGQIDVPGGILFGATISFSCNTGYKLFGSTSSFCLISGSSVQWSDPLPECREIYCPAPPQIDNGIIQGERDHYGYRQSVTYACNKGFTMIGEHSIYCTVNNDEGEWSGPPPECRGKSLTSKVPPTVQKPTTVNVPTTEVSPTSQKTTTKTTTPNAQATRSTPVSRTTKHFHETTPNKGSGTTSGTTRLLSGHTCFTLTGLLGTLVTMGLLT
UniProt P04818: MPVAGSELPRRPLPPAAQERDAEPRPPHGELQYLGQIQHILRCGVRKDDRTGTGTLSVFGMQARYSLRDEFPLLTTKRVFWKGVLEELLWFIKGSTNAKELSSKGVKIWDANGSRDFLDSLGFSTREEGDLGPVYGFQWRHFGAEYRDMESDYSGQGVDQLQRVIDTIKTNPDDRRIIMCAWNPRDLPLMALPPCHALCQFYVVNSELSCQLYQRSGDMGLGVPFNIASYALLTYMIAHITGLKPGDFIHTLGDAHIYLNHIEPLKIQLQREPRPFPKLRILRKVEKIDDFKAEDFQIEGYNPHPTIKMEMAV
UniProt P13612, whole entry: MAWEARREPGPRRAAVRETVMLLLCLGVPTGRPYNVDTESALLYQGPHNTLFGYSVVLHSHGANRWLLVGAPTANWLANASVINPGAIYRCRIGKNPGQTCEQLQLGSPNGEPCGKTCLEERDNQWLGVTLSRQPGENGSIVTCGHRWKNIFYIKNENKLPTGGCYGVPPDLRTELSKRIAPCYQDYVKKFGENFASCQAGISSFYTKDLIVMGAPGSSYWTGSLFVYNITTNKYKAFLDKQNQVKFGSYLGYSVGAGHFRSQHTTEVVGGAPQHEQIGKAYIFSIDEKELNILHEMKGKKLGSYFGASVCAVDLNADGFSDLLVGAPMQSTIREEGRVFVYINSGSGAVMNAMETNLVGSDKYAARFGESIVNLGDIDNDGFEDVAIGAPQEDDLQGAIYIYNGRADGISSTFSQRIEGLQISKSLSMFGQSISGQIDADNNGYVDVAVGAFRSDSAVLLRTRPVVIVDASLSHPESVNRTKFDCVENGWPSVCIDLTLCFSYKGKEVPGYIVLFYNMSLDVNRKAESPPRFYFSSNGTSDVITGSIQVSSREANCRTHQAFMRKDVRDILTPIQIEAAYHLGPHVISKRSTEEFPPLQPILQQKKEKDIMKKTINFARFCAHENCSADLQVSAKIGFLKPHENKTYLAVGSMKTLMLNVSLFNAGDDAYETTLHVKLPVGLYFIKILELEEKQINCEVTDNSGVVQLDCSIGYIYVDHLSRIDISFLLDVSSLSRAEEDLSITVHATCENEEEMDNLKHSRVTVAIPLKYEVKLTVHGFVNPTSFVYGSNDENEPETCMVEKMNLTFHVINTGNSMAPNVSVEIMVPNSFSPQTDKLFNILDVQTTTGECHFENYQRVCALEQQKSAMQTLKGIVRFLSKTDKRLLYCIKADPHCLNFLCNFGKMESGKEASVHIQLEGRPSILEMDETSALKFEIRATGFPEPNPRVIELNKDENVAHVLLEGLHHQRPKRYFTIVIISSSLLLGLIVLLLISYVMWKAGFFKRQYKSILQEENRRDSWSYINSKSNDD
UniProt P08754, whole entry: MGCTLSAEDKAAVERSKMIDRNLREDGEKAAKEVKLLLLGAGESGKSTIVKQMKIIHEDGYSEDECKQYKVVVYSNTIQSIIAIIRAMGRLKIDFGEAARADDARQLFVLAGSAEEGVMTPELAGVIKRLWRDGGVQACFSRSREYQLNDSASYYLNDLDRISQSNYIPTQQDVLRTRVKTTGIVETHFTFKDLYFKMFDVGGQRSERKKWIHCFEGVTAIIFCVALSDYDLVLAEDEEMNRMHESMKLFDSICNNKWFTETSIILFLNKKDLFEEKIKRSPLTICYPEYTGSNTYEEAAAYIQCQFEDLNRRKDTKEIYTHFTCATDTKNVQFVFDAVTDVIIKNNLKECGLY
UniProt P06454: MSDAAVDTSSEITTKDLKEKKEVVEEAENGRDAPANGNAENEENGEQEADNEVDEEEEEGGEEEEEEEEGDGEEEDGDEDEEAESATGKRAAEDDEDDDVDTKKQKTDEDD
UniProt P12956: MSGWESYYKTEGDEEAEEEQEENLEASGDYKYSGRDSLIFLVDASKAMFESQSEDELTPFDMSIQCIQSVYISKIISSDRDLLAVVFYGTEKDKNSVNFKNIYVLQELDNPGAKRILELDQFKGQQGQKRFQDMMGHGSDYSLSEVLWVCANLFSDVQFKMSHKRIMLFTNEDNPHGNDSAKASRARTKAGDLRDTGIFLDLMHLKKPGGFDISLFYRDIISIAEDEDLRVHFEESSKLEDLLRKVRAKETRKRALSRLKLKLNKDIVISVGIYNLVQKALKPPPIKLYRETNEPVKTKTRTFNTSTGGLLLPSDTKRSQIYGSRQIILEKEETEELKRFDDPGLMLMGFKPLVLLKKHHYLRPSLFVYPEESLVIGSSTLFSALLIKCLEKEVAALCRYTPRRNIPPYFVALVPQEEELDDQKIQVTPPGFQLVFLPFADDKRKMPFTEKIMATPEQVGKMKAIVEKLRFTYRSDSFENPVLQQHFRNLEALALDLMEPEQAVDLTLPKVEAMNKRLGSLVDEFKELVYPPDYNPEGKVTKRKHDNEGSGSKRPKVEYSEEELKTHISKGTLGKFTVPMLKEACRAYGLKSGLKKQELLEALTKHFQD
UniProt P09972: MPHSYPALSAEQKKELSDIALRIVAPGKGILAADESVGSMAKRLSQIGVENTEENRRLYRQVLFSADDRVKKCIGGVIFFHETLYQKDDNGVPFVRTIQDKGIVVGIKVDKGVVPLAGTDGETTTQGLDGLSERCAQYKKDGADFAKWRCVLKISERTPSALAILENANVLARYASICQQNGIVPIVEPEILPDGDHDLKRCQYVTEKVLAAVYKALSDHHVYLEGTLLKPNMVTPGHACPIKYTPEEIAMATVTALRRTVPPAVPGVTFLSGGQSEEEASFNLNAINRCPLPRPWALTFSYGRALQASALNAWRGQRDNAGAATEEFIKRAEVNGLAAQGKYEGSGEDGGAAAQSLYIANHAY
UniProt P10244: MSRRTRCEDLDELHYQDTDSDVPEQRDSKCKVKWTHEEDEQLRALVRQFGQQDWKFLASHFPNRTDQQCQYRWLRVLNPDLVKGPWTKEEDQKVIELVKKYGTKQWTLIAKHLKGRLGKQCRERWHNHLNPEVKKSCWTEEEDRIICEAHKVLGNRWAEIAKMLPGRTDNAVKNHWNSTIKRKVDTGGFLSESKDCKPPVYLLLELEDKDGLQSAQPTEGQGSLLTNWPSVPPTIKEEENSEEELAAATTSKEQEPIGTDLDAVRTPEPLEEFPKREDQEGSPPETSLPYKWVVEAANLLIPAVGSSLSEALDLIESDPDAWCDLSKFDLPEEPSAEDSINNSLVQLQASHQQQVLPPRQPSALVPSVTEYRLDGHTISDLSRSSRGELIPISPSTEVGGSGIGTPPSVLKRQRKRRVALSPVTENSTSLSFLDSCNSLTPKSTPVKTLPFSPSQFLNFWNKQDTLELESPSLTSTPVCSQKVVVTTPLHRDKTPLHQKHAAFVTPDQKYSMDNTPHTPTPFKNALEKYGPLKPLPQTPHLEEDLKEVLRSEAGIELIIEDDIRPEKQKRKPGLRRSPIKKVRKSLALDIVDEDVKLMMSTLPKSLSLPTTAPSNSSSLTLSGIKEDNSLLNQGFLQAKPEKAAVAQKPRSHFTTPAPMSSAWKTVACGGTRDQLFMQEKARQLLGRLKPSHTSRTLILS
UniProt P05771, whole entry, looked up: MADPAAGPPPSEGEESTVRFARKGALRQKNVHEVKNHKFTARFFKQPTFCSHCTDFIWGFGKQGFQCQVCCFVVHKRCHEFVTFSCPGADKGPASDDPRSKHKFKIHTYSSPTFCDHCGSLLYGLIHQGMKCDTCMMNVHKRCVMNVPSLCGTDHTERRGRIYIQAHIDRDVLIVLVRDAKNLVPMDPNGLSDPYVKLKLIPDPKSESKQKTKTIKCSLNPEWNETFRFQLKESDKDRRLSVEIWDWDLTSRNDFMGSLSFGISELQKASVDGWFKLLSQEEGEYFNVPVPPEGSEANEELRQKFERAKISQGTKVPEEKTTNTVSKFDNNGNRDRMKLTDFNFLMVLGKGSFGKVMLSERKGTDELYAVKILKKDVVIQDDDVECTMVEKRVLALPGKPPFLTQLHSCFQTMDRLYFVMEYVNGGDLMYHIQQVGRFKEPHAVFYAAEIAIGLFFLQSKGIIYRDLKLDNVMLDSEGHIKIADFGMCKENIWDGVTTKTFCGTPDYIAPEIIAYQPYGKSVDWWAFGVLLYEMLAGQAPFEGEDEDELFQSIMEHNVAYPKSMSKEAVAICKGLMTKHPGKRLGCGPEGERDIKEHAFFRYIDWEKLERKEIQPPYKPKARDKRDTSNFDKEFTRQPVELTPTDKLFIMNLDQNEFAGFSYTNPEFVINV
UniProt P02654: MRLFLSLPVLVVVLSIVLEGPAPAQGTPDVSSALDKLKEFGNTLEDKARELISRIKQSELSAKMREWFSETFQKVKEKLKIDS

Target	log2 fold change
UniProt P11137 (peptide sequence: SLGLGGR, peptide start residue: 686)	0.363
OAT (peptide sequence: SQVDKLTLTSR, peptide start residue: 103) (UniProt P04181)	0.625
HSPA5 (peptide sequence: NELESYAYSLK, peptide start residue: 563) (UniProt P11021)	0.12
SKIL (peptide sequence: LDASISNNSTSK, peptide start residue: 476) (UniProt P12757)	-0.348
RPLP0 (peptide sequence: GHLENNPALEK, peptide start residue: 67) (UniProt P05388)	-0.128
ESRRA (peptide sequence: CLPGHKEEEDGEGAGPGEQGGGK, peptide start residue: 46) (UniProt P11474)	0.531
LYN (peptide sequence: EGFIPSNYVAK, peptide start residue: 110) (UniProt P07948)	0.48
GAPDH (peptide sequence: AGAHLQGGAKR, peptide start residue: 108) (UniProt P04406)	-0.384
SNRPC (peptide sequence: KHKENVK, peptide start residue: 29) (UniProt P09234)	-0.443
PGK2 (peptide sequence: VSHVSTGGGASLELLEGK, peptide start residue: 389) (UniProt P07205)	0.933
LTF (peptide sequence: YYGYTGAFR, peptide start residue: 544) (UniProt P02788)	0.265
CKM (peptide sequence: GIWHNDNK, peptide start residue: 216) (UniProt P06732)	0.0405
IMPDH2 (peptide sequence: HGFCGIPITDTGRMGSR, peptide start residue: 137) (UniProt P12268)	0.546
CNP (peptide sequence: EKNQWQLSADDLK, peptide start residue: 163) (UniProt P09543)	-0.187
CD55 (peptide sequence: GSGTTSGTTR, peptide start residue: 348) (UniProt P08174)	-0.327
TYMS (peptide sequence: DAEPRPPHGELQYLGQIQHILR, peptide start residue: 21) (UniProt P04818)	-0.17
ITGA4 (peptide sequence: IEGLQISK, peptide start residue: 418) (UniProt P13612)	0.183
GNAI3 (peptide sequence: EIYTHFTCATDTK, peptide start residue: 318) (UniProt P08754)	-0.297
GSN (peptide sequence: AGALNSNDAFVLK, peptide start residue: 585) (UniProt P06396)	0.13

Given comma-delimited: part of the list above
Target,log2 fold change
"CKM (peptide sequence: GIWHNDNK, peptide start residue: 216) (UniProt P06732)",0.0405
"IMPDH2 (peptide sequence: HGFCGIPITDTGRMGSR, peptide start residue: 137) (UniProt P12268)",0.546
"CNP (peptide sequence: EKNQWQLSADDLK, peptide start residue: 163) (UniProt P09543)",-0.187

More records:

Target	log2 fold change
C0HKE1 (peptide sequence: HLQLAIRNDEELNKLLGR, peptide start residue: 83) (UniProt P04908)	0.248
UMPS (peptide sequence: EQGGKDKLQAHGIR, peptide start residue: 156) (UniProt P11172)	-0.281
UniProt P08134 (peptide sequence: MKQEPVRSEEGR, peptide start residue: 134)	0.185
E9PJD7 (peptide sequence: HQKEECQDR, peptide start residue: 196) (UniProt P0DTL6)	-0.753
GPI (peptide sequence: MIPCDFLIPVQTQHPIRK, peptide start residue: 401) (UniProt P06744)	-0.252
TFPT (peptide sequence: RTPAPPEPGSPAPGEGPSGR, peptide start residue: 171) (UniProt P0C1Z6)	-0.228
SPTB (peptide sequence: WISAMEDQLR, peptide start residue: 1394) (UniProt P11277)	0.0639
GC (peptide sequence: RTHLPEVFLSK, peptide start residue: 353) (UniProt P02774)	0.045
UniProt P0DJG4 (peptide sequence: DSYAPYELHGPHAAPK, peptide start residue: 96)	-0.427
ATXN1L (peptide sequence: MKPVHER, peptide start residue: 1) (UniProt P0C7T5)	-0.278
PTMA (peptide sequence: AAEDDEDDDVDTKKQK, peptide start residue: 91) (UniProt P06454)	-0.0639
UniProt P0DJJ0 (peptide sequence: FVQVSEDSGR, peptide start residue: 128)	0.169
XRCC6 (peptide sequence: KMPFTEKIMATPEQVGK, peptide start residue: 445) (UniProt P12956)	0.92
TFRC (peptide sequence: YNSQLLSFVR, peptide start residue: 614) (UniProt P02786)	-0.498
ALDOC (peptide sequence: AEVNGLAAQGK, peptide start residue: 332) (UniProt P09972)	0.249
MYBL2 (peptide sequence: DQLFMQEK, peptide start residue: 673) (UniProt P10244)	-0.425
PRKCB (peptide sequence: KDVVIQDDDVECTMVEKR, peptide start residue: 375) (UniProt P05771)	0.263
APOC1 (peptide sequence: IKQSELSAK, peptide start residue: 55) (UniProt P02654)	-0.207
